Laboratory results taken from article PMC4981402.
For at least one entry, the source does not settle the construct or the ends of the probe. At least one verdict rests on a figure or table, not on a statement of the authors.

Chains of the proteins cited; added tags and fusions are not shown.
UniProt Q06609, whole entry: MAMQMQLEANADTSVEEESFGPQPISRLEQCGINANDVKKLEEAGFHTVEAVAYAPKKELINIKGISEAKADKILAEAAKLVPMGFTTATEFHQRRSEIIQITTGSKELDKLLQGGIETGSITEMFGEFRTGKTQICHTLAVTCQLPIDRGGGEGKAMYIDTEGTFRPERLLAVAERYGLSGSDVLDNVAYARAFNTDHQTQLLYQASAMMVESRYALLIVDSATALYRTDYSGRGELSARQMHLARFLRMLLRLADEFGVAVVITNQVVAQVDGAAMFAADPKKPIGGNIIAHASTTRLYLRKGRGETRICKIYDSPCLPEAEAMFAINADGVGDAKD
UniProt Q06609, whole entry G151D: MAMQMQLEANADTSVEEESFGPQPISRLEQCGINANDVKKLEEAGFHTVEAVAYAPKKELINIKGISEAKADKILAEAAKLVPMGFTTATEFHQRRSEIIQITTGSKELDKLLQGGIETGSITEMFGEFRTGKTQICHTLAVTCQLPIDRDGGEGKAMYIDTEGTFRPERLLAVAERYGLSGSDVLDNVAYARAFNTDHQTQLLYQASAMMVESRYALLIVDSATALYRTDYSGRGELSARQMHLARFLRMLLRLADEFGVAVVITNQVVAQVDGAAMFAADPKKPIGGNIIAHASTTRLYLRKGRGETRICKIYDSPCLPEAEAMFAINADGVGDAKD

Assays:
RAD51 WT (human) = RAD51 WT (human) (UniProt Q06609); assay: EMSA; details: 2 mM ATP, 1 mM Mg2+, 2 mM Ca2+, EMSA: 25 mM TrisOAc pH 7.5, 1 mM MgCl2, 2 mM CaCl2, 0.1 ug/uL BSA, 1 mM DTT, 0.2 nM DNA, 37 C 30 min, gel in TAE at 4 C, recombinant protein
RAD51 G151D (human) = RAD51 G151D (human) (UniProt Q06609); assay: EMSA; details: 2 mM ATP, 1 mM Mg2+, 2 mM Ca2+, complexes migrate faster than WT, EMSA: 25 mM TrisOAc pH 7.5, 1 mM MgCl2, 2 mM CaCl2, 0.1 ug/uL BSA, 1 mM DTT, 0.2 nM DNA, 37 C 30 min, gel in TAE at 4 C, recombinant protein
[1] = label: 5'-32P, single-stranded DNA

Question: Does “CTGCTTTATCAAGATAATTTTTCGACTCATCAGAAATATCCGTTTCCTATATTTATTCCTATTATGTTTTATTCATTTACTTATTCTTTATGTTCATTTTTTATATCCTTTACTTTATTTTCTCTGTTTATTCATTTACTTATTTTGTATTATCCTTATCTTATTTA / CGGATATTTCTGATGAGTCGAAAAATTATCTTGATAAAGCAG [3' tail DNA (RJ-167-mer/RJ-PHIX-42-1)]” bind (RAD51 WT (human); label: 5'-32P on RJ-167-mer)?
Answer: Result: binds

Question: Does “CTGCTTTATCAAGATAATTTTTCGACTCATCAGAAATATCCGTTTCCTATATTTATTCCTATTATGTTTTATTCATTTACTTATTCTTTATGTTCATTTTTTATATCCTTTACTTTATTTTCTCTGTTTATTCATTTACTTATTTTGTATTATCCTTATCTTATTTA / CGGATATTTCTGATGAGTCGAAAAATTATCTTGATAAAGCAG [3' tail DNA (RJ-167-mer/RJ-PHIX-42-1)]” bind (RAD51 G151D (human); label: 5'-32P on RJ-167-mer)?
Answer: Result: binds

Question: What does the source list for “CTGCTTTATCAAGATAATTTTTCGACTCATCAGAAATATCCGTTTCCTATATTTATTCCTATTATGTTTTATTCATTTACTTATTCTTTATGTTCATTTTTTATATCCTTTACTTTATTTTCTCTGTTTATTCATTTACTTATTTTGTATTATCCTTATCTTATTTA [ssDNA RJ-167-mer]”?
Answer: binding result (RAD51 WT (human); [1]): binds; binding result (RAD51 G151D (human); [1]): binds

Question: Does “TAATACAAAATAAGTAAATGAATAAACAGAGAAAATAAAG (double strand) [dsDNA RJ-Oligo1/RJ-Oligo2]” bind (RAD51 WT (human); label: 5'-32P on RJ-Oligo1)?
Answer: Result: binds

Question: Does “TAATACAAAATAAGTAAATGAATAAACAGAGAAAATAAAG (double strand) [dsDNA RJ-Oligo1/RJ-Oligo2]” bind (RAD51 G151D (human); label: 5'-32P on RJ-Oligo1)?
Answer: Result: binds
